In the test the target is FLAG-HA-tagged dKDM5/LID (Drosophila) (UniProt Q9VMJ7). Description: co-IP; nuclear extracts of S2 cells expressing the HA-tagged bait, anti-HA agarose beads (clone HA-7) overnight at 4 °C in 20 mM HEPES pH 7.4, 150 mM NaCl, 0.5 mM EDTA, 1 % Triton X-100, 10 % glycerol; washes with RIPA, 500 mM and 300 mM NaCl buffers; western blot of bound fraction; untransfected S2 cells as control. In general terms: In western blotting, separated proteins are transferred to a membrane and probed.

Sequences of proteins named here, by UniProt entry; tags and fusion partners are left off.
UniProt Q9VMJ7: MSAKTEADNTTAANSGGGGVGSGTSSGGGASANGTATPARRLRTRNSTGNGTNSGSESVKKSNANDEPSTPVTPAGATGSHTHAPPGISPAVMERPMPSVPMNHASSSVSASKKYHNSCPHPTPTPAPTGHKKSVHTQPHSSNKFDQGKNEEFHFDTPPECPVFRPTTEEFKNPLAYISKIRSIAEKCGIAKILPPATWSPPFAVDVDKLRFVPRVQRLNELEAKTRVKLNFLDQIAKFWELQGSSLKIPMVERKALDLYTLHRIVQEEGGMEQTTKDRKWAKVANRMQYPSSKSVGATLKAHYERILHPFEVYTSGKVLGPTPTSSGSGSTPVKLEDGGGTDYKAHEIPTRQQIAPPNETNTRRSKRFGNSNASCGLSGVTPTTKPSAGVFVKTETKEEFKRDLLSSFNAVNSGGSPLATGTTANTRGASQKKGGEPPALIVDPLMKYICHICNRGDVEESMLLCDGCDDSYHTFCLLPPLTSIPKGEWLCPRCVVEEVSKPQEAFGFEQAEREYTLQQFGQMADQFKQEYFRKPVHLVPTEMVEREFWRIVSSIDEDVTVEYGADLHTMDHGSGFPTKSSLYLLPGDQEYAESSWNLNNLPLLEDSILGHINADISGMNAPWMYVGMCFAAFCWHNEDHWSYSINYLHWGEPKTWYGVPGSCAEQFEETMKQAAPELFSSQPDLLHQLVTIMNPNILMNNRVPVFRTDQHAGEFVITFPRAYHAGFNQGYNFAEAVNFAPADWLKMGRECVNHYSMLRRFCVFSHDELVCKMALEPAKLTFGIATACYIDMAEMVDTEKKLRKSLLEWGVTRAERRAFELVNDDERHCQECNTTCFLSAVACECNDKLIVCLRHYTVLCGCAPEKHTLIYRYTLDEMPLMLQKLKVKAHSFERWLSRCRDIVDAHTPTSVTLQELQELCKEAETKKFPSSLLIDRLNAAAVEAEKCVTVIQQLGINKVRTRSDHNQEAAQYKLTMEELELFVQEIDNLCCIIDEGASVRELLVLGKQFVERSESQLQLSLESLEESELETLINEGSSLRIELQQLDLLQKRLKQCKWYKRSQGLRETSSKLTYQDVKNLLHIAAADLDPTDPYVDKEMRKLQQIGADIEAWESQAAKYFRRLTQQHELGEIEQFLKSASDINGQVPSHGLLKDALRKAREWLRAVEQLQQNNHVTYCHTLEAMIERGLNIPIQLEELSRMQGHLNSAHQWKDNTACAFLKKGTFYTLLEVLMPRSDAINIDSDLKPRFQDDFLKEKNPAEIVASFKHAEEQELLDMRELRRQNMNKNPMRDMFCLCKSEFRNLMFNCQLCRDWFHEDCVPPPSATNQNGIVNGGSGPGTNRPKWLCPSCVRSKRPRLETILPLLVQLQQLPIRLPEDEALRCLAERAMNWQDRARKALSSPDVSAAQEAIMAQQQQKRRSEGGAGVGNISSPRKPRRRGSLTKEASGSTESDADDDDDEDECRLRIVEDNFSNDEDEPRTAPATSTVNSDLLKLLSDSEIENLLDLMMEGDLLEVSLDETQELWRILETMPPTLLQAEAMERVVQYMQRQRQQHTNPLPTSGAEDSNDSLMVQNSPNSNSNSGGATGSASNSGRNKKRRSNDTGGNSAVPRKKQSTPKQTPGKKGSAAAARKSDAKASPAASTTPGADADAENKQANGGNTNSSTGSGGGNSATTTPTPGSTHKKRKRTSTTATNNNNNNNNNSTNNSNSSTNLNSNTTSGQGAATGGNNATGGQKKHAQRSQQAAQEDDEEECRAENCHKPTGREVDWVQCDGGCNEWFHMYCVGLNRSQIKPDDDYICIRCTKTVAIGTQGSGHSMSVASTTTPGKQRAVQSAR
UniProt Q94517: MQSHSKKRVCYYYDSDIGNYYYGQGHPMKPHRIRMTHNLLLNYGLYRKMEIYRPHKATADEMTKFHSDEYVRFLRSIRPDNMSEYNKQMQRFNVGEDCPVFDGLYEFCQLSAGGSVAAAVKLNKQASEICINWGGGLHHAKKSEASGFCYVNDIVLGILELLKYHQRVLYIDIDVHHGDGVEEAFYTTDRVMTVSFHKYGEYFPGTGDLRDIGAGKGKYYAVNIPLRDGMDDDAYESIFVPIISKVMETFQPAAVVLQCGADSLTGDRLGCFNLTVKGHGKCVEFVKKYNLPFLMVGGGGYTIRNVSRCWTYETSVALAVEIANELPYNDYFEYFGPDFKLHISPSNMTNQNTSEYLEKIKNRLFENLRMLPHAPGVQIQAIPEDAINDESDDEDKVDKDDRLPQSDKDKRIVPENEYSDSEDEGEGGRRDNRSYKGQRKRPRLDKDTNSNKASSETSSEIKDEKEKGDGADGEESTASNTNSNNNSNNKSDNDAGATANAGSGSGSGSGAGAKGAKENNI

Results are given in words; binding and its absence hold for the method and conditions named. In cells and extracts the contact can be indirect. Some entries that bind do so weakly or less than the wild type.

For “RPD3 (endogenous, S2 cells) (from UniProt Q94517 1-521) (enzyme)”, the binding entry was “binds”.

Source of the values: article PMC4740996.
